The results are deposited in PubChem (AID1159506; NCATS, 2015).

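Luminescence from an EWS-FLI1 target-promoter (NR0B1) reporter, set against a CMV-promoter reporter, two days after silencing single genes in TC32 Ewing sarcoma cells. Each siRNA was applied at 20 nM. A z-score of the log NR0B1-over-CMV signal, less the median of siRNAs with the same seed; more negative means a stronger specific loss of the NR0B1 reporter.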

The strongest results of the screen are mostly left out here. Sequences are the guide (antisense) strand, without overhang.

| # | Sequence | gene | seed-corrected z-score |
|---|---|---|---|
| 1 | `ACAACAUCUCUUACUAUUU` | SPSB2 | 0.1798 |
| 2 | `UUGGGUUAGAUGGUAGAUC` | KRTAP6-3 | 0.1172 |
| 3 | `UCCUUUCAGAGUCCUCUCG` | WSCD1 | 0.8655 |
| 4 | `UUUCGAAUAAAUUCACCCG` | FBXW7 | -0.2073 |
| 5 | `AAAGUCCUUACAGUCGCCG` | PARP16 | -1.547 |
| 6 | `UAAUAUCUCUGUGAAUCAC` | AURKC | -0.09687 |
| 7 | `AAAACAACUAUGCUGAACA` | SLC12A9 | -1.052 |
| 8 | `UGACCUUUGACAGUUCUCC` | NDUFA8 | -1.055 |
| 9 | `UCUAAGUACAUUUUGGACC` | RGS8 | -0.6898 |
| 10 | `UAUCAUUGCAGUGUGGAUG` | PILRB | 1.489 |
| 11 | `UUUAGGGUUAGAGUAAUGC` | C5orf34 | 0.8049 |
| 12 | `UCAGAUUAAAAGCUCCUGG` | NIT2 | 0.1661 |
| 13 | `AAUGUAAAAAGGUGAAAGC` | SLC48A1 | 0.5973 |
| 14 | `AACCGGAAUCGUAGAAUCC` | NQO2 | -0.4267 |
| 15 | `UACUUCUCGAACACCGAUG` | RHOF | 0.4232 |
| 16 | `AUAGGUGAACUCUUGAGGA` | FCRL2 | 0.6227 |
| 17 | `UCUGCGCCUAUAGUGAGAC` | PRM2 | 0.1144 |
| 18 | `AAAGUCUAUGGAGAGAGCC` | HLA-DRB7 | 0.8062 |
| 19 | `UGAGGUCUUCGCACUCUUC` | NBPF1 | -1.991 |
| 20 | `UUUUGUAGGACACGUGAGC` | ANKRD30BP3 | 0.4048 |
| 21 | `UUUGGUAAUAGGGUAUUUC` | MED26 | -0.13 |
| 22 | `UGUGCUACAGGACUUAUCC` | UNC79 | 1.314 |
| 23 | `UAAUUAGCAAAAUAAGGUC` | TM2D2 | -0.117 |
| 24 | `AAAUGGACGUGUUUCAGCG` | CHAD | 0.4534 |
| 25 | `UUUCAGCAACCCAUCUUCG` | FAM185BP | -0.5437 |
| 26 | `UUCCUCAUAUCUGUCUUCC` | TPM1 | 0.2414 |
| 27 | `UCUUAAACAAGGCAUAUGC` | FAM210A | -0.2274 |
| 28 | `UAUAGGACUCUCCUCUUGG` | ZNF639 | 0.94 |
| 29 | `UUUAGUUAAAUCCACUUCA` | RAD52 | 0.6675 |
| 30 | `UCAACUUCCAUCUUCAAUU` | GNGT1 | -0.04883 |
| 31 | `AUACUGUCAGGUUGAACGG` | JAG1 | -1.248 |
| 32 | `AUCAUUCCCAUAGAGGAGC` | MRPL37 | -0.6576 |
| 33 | `AAUCUUGUCAAACUUGAUG` | C1QTNF2 | -0.664 |
| 34 | `UAUAGGGAAGUGACGAUGG` | SLC36A2 | 0.2401 |
| 35 | `UUCUCUUGAAGAUAUGGUG` | MUC7 | -0.327 |
| 36 | `UCAGGUACAACGGGAUGUC` | COX7A1 | 0.8112 |
| 37 | `UGUUACAUCAUCCUUAUCC` | TEX29 | 0.1485 |
| 38 | `AACGUGGUCGGCUUGUUGG` | MRPL43 | -0.06086 |
| 39 | `UUUCAUACGGGAUUUUGCC` | ITK | -0.06238 |
| 40 | `UUAGGGACCAAACCGAGGU` | PRRT1 | 0.5804 |
| 41 | `UUUCCAAGCUCCUUGAUCU` | P2RX6 | -1.398 |
| 42 | `UCUAGAAUUCCCGUGCUGG` | SGSH | -0.8595 |
| 43 | `AACCAGUCAAGAUCCAUUC` | WDR12 | 0.5271 |
| 44 | `UCAUCAACCAGGCAUCUCC` | IL10RA | -1.357 |
| 45 | `UAUGACUUCACGCUUUUUC` | GABRA5 | -1.5 |
| 46 | `UCUGGAUCUAGACAAUCUG` | CDK13 | -1.654 |
| 47 | `UCUCCAGAAAUAACCGGGC` | DGAT1 | 0.4671 |
| 48 | `UGUUUGUCAAUCCUAACUC` | MTBP | -1.169 |
| 49 | `UUUACUACAAUCAACUGUC` | MAP10 | 0.08702 |
| 50 | `AUAGGAGCCGAGGUCAUCA` | ARFGAP1 | 0.2496 |
| 51 | `UUCUUUACGAAUUGCUGCC` | PHACTR3 | 1.966 |
| 52 | `UCAUAUUCGACUUUGGUUG` | PLK1 | -0.3 |
| 53 | `AAAGUUGGAACUGCUUCCG` | AKAP8 | 0.6993 |
| 54 | `AUUGCUAACAGGUUCAGGC` | MYCBPAP | 0.4191 |
| 55 | `AACCCAAUAUGUAUAGGGC` | CYP2E1 | 0.4086 |
| 56 | `UUUACAAGAUCUGUUACCC` | ODF2 | -0.4411 |
| 57 | `AACGGGACGAUUGGGAUCG` | LOC643936 | 1.939 |
| 58 | `UUAGGUCUUCGAACAGAAG` | TRIM77 | -1.937 |
| 59 | `AAAAUCGAAAGGUCCGUUC` | CRYM-AS1 | -0.5796 |
| 60 | `UUAAUGAGAAUGUCGAUUC` | DECR2 | -0.6862 |
| 61 | `UAUCUGAUAUACCACCAGC` | SH3PXD2A | 0.4592 |
| 62 | `UGAAGCAUGACAGUCGGCG` | FCN1 | 0.04013 |
| 63 | `UGACAUACAUGCUCAGGAC` | C1orf74 | 0.2304 |
| 64 | `AUUGGAUCGAUUGUCACUU` | FAM103A1 | 0.09958 |
| 65 | `AAACUAAUCUCCGUGUUCU` | FABP7 | -0.6329 |
| 66 | `UUGCGUUCGAUGGUUGCCU` | MRPS7 | -0.2063 |
| 67 | `UCUCAUAGAUGUACCAUUG` | GKN2 | -0.6292 |
| 68 | `UAUCUGCAUAUUCACUUGC` | SNRPEP2 | -1.998 |
| 69 | `UAUGGUAUGAAAGAUGAGA` | STATH | 0.4494 |
| 70 | `UCGGAAGAACGGAUGAUCC` | JCHAIN | 1.776 |
| 71 | `AUCCUUUAGAGAGUUCUGC` | VAV1 | -0.7996 |
| 72 | `UGCGUAAUAUCUGUGCACG` | FIGNL1 | 0.004959 |
| 73 | `UUAGCAACGGACUCAACUC` | SLC38A6 | 0.8009 |
| 74 | `UAGCCUGUAACACCUUCCC` | ESYT1 | 0.9499 |
| 75 | `UUCCGUCUUUGAACCAAGU` | ANKRD23 | 0.03818 |

Repeated from the top, 6 entries:

Sequence,gene,seed-corrected z-score
ACAACAUCUCUUACUAUUU,SPSB2,0.1798
UUGGGUUAGAUGGUAGAUC,KRTAP6-3,0.1172
UCCUUUCAGAGUCCUCUCG,WSCD1,0.8655
UUUCGAAUAAAUUCACCCG,FBXW7,-0.2073
AAAGUCCUUACAGUCGCCG,PARP16,-1.547
UAAUAUCUCUGUGAAUCAC,AURKC,-0.09687